Data: publication PMC3320541

Target: HopZ2^C/A::nYFP (and HopZ2^C/A::cYFP in the reciprocal combination) (Pseudomonas syringae)
Assay: split reporter; BiFC with nYFP and cYFP fusions (both combinations) co-expressed by Agrobacterium infiltration in N. benthamiana leaves; 20 uM dexamethasone; confocal imaging 72-96 hours after induction

B1: MLO2^Δ1-280::cYFP (and MLO2^Δ1-280::nYFP in the reciprocal combination) (domain or fragment, UniProt Q9SXB6 281-573)
chain: QRSLEKDFKTVVEISPVIWFVAVLFLLTNSYGLRSYLWLPFIPLVVILIVGTKLEVIITKLGLRIQEKGDVVRGAPVVQPGDDLFWFGKPRFILFLIHLVLFTNAFQLAFFAWSTYEFNLNNCFHESTADVVIRLVVGAVVQILCSYVTLPLYALVTQMGSKMKPTVFNDRVATALKKWHHTAKNETKHGRHSGSNTPFSSRPTTPTHGSSPIHLLHNFNNRSVENYPSSPSPRYSGHGHHEHQFWDPESQHQEAETSTHHSLAHESSEPVLASVELPPIRTSKSLRDFSFKK
In the case of B1, the binding is reported as “binds”.

These are yes or no findings as the source states them, for the method shown. In cells and extracts the contact can be indirect. A result given as binding can be weak or reduced; the word gives no strength. Tags and fused reporters may be left off the sequences shown.
